One experiment deals with T1, GST-RalGDS (UniProt Q12967).
T1 sequence: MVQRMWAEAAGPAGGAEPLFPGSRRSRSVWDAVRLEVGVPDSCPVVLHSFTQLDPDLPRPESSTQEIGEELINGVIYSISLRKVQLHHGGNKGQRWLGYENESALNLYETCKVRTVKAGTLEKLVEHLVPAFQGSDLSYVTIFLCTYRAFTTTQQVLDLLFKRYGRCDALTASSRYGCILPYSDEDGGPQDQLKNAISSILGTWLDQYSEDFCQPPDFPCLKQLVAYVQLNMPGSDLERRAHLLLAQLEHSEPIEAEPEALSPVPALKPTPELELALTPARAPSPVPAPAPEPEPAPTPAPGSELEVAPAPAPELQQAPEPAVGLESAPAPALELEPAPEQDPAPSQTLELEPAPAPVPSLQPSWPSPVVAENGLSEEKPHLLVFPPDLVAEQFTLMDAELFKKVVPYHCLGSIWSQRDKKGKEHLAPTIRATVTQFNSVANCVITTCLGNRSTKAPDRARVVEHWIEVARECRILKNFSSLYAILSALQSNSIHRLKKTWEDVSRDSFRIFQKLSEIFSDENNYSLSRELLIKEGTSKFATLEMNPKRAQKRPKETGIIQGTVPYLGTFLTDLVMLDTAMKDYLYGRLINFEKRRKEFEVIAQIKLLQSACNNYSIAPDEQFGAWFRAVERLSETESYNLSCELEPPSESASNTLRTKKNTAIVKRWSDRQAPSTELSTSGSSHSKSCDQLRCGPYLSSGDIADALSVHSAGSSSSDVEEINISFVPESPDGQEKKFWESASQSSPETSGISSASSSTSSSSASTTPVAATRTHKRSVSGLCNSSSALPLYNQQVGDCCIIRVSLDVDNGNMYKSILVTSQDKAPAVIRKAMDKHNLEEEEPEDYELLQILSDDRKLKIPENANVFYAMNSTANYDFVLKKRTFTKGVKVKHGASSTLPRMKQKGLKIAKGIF
The experiment can be described thus: pull-down; 20 ug GST-RalGDS added to lysate of control or Rab40-TKO MDA-MB-231 cells stably expressing GFP-Rap1b; 60 min room temperature, then glutathione beads 30 min; washes 20 mM Hepes pH 7.4, 300 mM NaCl, 0.1% Triton X-100; western blot; only the target purified.

The chains behind the UniProt entries cited, without tags or fusion partners.
UniProt P61224: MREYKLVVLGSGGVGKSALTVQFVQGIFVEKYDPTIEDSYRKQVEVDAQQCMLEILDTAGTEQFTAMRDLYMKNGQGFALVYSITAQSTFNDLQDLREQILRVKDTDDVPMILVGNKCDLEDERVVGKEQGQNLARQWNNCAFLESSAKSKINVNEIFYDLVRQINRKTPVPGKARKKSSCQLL

A further experiment deals with GST-Rap1b (UniProt P61224). The experiment can be described thus: pull-down; 10 ug GST-Rap1b added to MDA-MB-231 lysate (400 uL at 3 mg/mL) locked with GppCp or GDP (5 mM EDTA, 5 mM nucleotide, 15 mM MgCl2); 1 h room temperature, then GST beads 30 min; washes 20 mM Hepes pH 7.4, 300 mM NaCl, 0.1% Triton X-100; anti-FLAG western blot; only the target purified. (Immunoblotting shows a protein as a band on a membrane.)

No constants are given. Whether binding was seen depends on the method and setting. Binding seen in cells or lysates may run through a third protein. Some binding calls cover weakened binding; strength is not graded here. Where a sequence is shown, tags or fusion partners need not be part of it.

In the case of GFP-Rap1b (from UniProt P61224 1-184), in the experiment with GST-RalGDS, the binding entry is listed as “binds”.

B1: FLAG-Rab40b-WT (protein, UniProt Q12829 1-278)
chain: MSALGSPVRAYDFLLKFLLVGDSDVGKGEILASLQDGAAESPYGHPAGIDYKTTTILLDGRRVKLQLWDTSGQGRFCTIFRSYSRGAQGVILVYDIANRWSFDGIDRWIKEIDEHAPGVPKILVGNRLHLAFKRQVPTEQAQAYAERLGVTFFEVSPLCNFNITESFTELARIVLLRHGMDRLWRPSKVLSLQDLCCRAVVSCTPVHLVDKLPLPIALRSHLKSFSMANGLNARMMHGGSYSLTTSSTHKRSSLRKVKLVRPPQSPPKNCTRNSCKIS
For B1, the binding entry with GST-Rap1b is listed as “binds”.

The values are drawn from publication PMC12186120.
